PubChem BioAssay AID686943 | Drosophila RNAi Screening Center, 2013

- Screen: 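Knockdowns that increase or decrease active ERK after insulin receptor stimulation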 (primary screen)
- Cell system: Drosophila S2R+ haemocyte-like cells expressing YFP-tagged ERK (Rolled)
- Knock-down reagent: long dsRNA against Drosophila genes
- Conditions: insulin stimulation versus unstimulated cells; dose and duration not given
- Measured: 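Per-plate z-scores of phospho-ERK immunostaining normalised to YFP-tagged ERK, measured with and without insulin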
- Reading the numbers: replicate 1, z-score of dpERK with insulin: higher = more active ERK per ERK-YFP after insulin
The screen tested about 23,000 reagents; shown is a random part of those that have a named target and a result. 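Extra replicates exist only for a retested subset of genes; insulin dose and duration not given; both raised and lowered dpERK matter.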 Reagents against one gene are numbered here. Names joined by + are all predicted targets of the reagent. Further read-outs or replicates are left out here. Not stated in the record: the amount of reagent, the time to read-out.

CenG1A (Centaurin gamma 1A) #1 | replicate 1, z-score of dpERK with insulin: -0.69
CenG1A (Centaurin gamma 1A) #2 | replicate 1, z-score of dpERK with insulin: 0.31
CenG1A (Centaurin gamma 1A) #3 | replicate 1, z-score of dpERK with insulin: 0.66
Amyrel (Amylase related) | replicate 1, z-score of dpERK with insulin: -0.5
CG15130 | replicate 1, z-score of dpERK with insulin: -0.07
Acf (ATP-dependent chromatin assembly factor large subunit) | replicate 1, z-score of dpERK with insulin: 0.13
SRPK (SR Protein Kinase) | replicate 1, z-score of dpERK with insulin: -0.3
CG5023 | replicate 1, z-score of dpERK with insulin: 0
Root (Rootletin) | replicate 1, z-score of dpERK with insulin: 0.41
mRpL47 (mitochondrial ribosomal protein L47) | replicate 1, z-score of dpERK with insulin: -1.74
CG13476 | replicate 1, z-score of dpERK with insulin: 0.65
Hex-t1 (Hexokinase testis 1) | replicate 1, z-score of dpERK with insulin: -0.13
Strump (Strumpellin) | replicate 1, z-score of dpERK with insulin: 0.26
kug (kugelei) | replicate 1, z-score of dpERK with insulin: 0.25
CG14756 | replicate 1, z-score of dpERK with insulin: 0.16
hpo (hippo) | replicate 1, z-score of dpERK with insulin: -0.38
CG10764 | replicate 1, z-score of dpERK with insulin: 0.14
Ccdc39 (Coiled-coil domain containing protein 39) | replicate 1, z-score of dpERK with insulin: -0.18
CG9396 | replicate 1, z-score of dpERK with insulin: -0.2
Pka-R2 (Protein kinase, cAMP-dependent, regulatory subunit type 2) | replicate 1, z-score of dpERK with insulin: 0.5
Gr98b (Gustatory receptor 98b) | replicate 1, z-score of dpERK with insulin: 0.55
Notum | replicate 1, z-score of dpERK with insulin: 0.16
dlt (discs lost) | replicate 1, z-score of dpERK with insulin: -1.69
Tep2 (Thioester-containing protein 2) #1 | replicate 1, z-score of dpERK with insulin: -0.83
Tep2 (Thioester-containing protein 2) #2 | replicate 1, z-score of dpERK with insulin: -0.45
CG42521 | replicate 1, z-score of dpERK with insulin: 0.12
Gug (Grunge) | replicate 1, z-score of dpERK with insulin: -0.39
l(3)72Dp (lethal (3) 72Dp) | replicate 1, z-score of dpERK with insulin: 0.04
NetA (Netrin-A) | replicate 1, z-score of dpERK with insulin: 0.1
CG45105 #1 | replicate 1, z-score of dpERK with insulin: -0.73
CG45105 #2 | replicate 1, z-score of dpERK with insulin: -0.98
Trx2 (Thioredoxin 2) | replicate 1, z-score of dpERK with insulin: 0.83
CG13315 | replicate 1, z-score of dpERK with insulin: -0.65
CG2021 | replicate 1, z-score of dpERK with insulin: 0.13
CG14180 (retired record) | replicate 1, z-score of dpERK with insulin: -0.87
prod (proliferation disrupter) | replicate 1, z-score of dpERK with insulin: -1.68
CG32846 | replicate 1, z-score of dpERK with insulin: 0.08
CG32071 | replicate 1, z-score of dpERK with insulin: -0.07
CG34167 | replicate 1, z-score of dpERK with insulin: -0.19
Unc-115b + p24-2 | replicate 1, z-score of dpERK with insulin: 0.05

4 entries from above, ordered by “replicate 1, z-score of dpERK with insulin”, ascending:
prod (proliferation disrupter) | replicate 1, z-score of dpERK with insulin: -1.68
CG14180 (retired record) | replicate 1, z-score of dpERK with insulin: -0.87
CG32071 | replicate 1, z-score of dpERK with insulin: -0.07
CG32846 | replicate 1, z-score of dpERK with insulin: 0.08
